These results are taken from patent US20060241019A1 (priority 2003, published 2006).

This data set is described as follows: peptide synthesis. Conditions: for conjugation yield: conjugation step.

(Lys B29)-MPA(AEES)2-Insulin: the conjugation yield was 25.9%.

(Lys B29)-MPA(OA)-Insulin: the step yield (late stage modification step) amounted to 31%. For the substance (Phe B1)-MPA(AEES)2-Insulin, the conjugation yield is recorded as 43.7%.
